PubChem BioAssay AID1259254 – NCATS | 2017
Here is an unselected part of about 59,000 reagents. Over the whole deposit, about 1,550 (2.6%) were called active. 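G2 share is only a proxy for re-replication; each gene was hit by three separate siRNAs, and active genes were retested.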 The numbers tell different reagents against one gene apart. Not all columns of the deposit are shown. The record does not give: the amount of reagent.

Aim: 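Finding genes that stop cells copying their DNA twice in one cycle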 (primary screen)
Cell system: human HCT116 colorectal cancer cells
Reagent: single siRNA against human genes
Duration: 3 days
Detection: 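Imaged Hoechst DNA stain sorts each cell into a cycle phase by DNA amount; per plate, G2 fraction set to 0% for non-targeting and 100% for GMNN siRNA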
Scale: G2 robust z-score: higher = more G2 cells, more excess DNA replication
Hit rule: 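Active siRNAs have a G2 robust z of 5 or more median absolute deviations over the median, which in these data means about 38% or higher of GMNN control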

G2 robust z-score, by target gene and reagent
MTFR1 (mitochondrial fission regulator 1): #1 -0.739 inactive; #2 0.256 inactive; #3 -0.543 inactive
EIF6 (eukaryotic translation initiation factor 6): #1 0.129 inactive; #2 2.94 inactive; #3 0.319 inactive
CDRT15L2 (CMT1A duplicated region transcript 15 like 2): #1 3.11 inactive; #2 -0.373 inactive; #3 -0.58 inactive
BAP1 (BRCA1 associated deubiquitinase 1): #1 1.14 inactive; #2 0.139 inactive; #3 -0.84 inactive
TAB3 (TGF-beta activated kinase 1 (MAP3K7) binding protein 3): #1 -0.199 inactive; #2 -0.364 inactive; #3 0.038 inactive
DNAH12 (dynein axonemal heavy chain 12): #1 -0.638 inactive; #2 -0.606 inactive; #3 2.7 inactive; #4 1.05 inactive; #5 -0.258 inactive; #6 0.619 inactive
EHBP1L1 (EH domain binding protein 1 like 1): #1 0.644 inactive; #2 1.3 inactive; #3 -0.242 inactive
NUTM1 (NUT midline carcinoma family member 1): #1 0.994 inactive; #2 -0.349 inactive; #3 4.41 inactive
SRP9 (signal recognition particle 9): #1 1.45 inactive; #2 0.177 inactive; #3 -0.315 inactive

No new results follow: 2 of the entries above.
G2 robust z-score, by target gene and reagent
SRP9 (signal recognition particle 9): #1 1.45 inactive; #2 0.177 inactive
